Patent publication US12351557B2, “Chemical compound manufacture, new salt form, and therapeutic uses thereof” (Eustralis Pharmaceuticals Limited (Trading As Pressura …, priority 2018, dated 2025)

Test: Bacterial Endotoxins
Conditions: 40° C./75% RH

Cc1ccccc1-c1cc(N2CCN(C)CC2)ncc1C(=O)N(C)Cc1cc(C(F)(F)F)cc(C(F)(F)F)c1 [Compound of formula (1) 2HCl salt]
Bacterial Endotoxins (0 months): <0.012 EU/mg | Bacterial Endotoxins (Initial Release): <0.012 EU/mg

Counter-ions that a name gives are not always drawn.
